Data: PubChem BioAssay AID1487 (National Center for Advancing Translational Sciences (NCATS), 2009)
This is one part of the list. The main result of the screen is listed elsewhere. These columns were measured beside it and carry no call. Compounds called inactive in the main read-out are mostly missing here. Potencies come from curve fits of mixed quality, noted in brackets.

Assay: qHTS Assay for Modulators of Lamin A Splicing
Conditions: HeLa LMNA splicing GFP/RFP minigene ratio, 48 h
In short: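 S3 HeLa stable clones carrying a lamin A-EGFP splicing minigene plus DsRed2 were seeded at 600 cells/well in Opti-MEM with 2% FBS, pin-dosed and incubated 48 h at 37°C. Acumen cytometry (488 nm) gave the GFP/RFP total-intensity ratio.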

[1] = measured here: RFP viability control channel
[2] = measured here: GFP splicing reporter channel

In the case of CC(=O)c1ccccc1OCC(O)CN1CCN(C(c2ccccc2)c2ccccc2)CC1 (stereo not given), the AC50 [1] is reported as 15.8 µM [rising, single point].

With O=C(c1cc(-c2ccccc2O)on1)N1CCc2ccccc2C1 the AC50 [1] was 12.6 µM [rising, single point].

For COc1ccc(CNC(=O)COC(=O)CC2CC3CCC2C3)cc1OC (stereo not given), the AC50 [2] was 0.2 µM [falling, full curve] and the AC50 [1] was 0.891 µM [falling, full curve, poor fit].

With Cc1nc2ccn(Cc3cccs3)c(=O)c2cc1C(=O)NCc1ccc(Br)cc1 the AC50 [1] was 3.55 µM [rising, single point].

For CCNc1ccc(C(=O)OCC)cc1NC(=O)c1cccc(N(C)C)c1, the AC50 [2] was 31.6 µM [rising, single point] and the AC50 [1] was 11.2 µM [rising, partial curve].

In the case of COC(=O)c1cccc(NC(=S)N2CCOCC2)c1, the AC50 [1] is reported as 3.16 µM [rising, single point].

For COc1ccc(CCCc2nnc(SCC(=O)Nc3nc(C)cs3)n2C)cc1C, the AC50 [1] was 12.6 µM [rising, partial curve, poor fit].

With CCc1nnc(NC(=O)CSc2nc3cccnc3n2Cc2ccccc2)s1 the AC50 [1] was 10 µM [rising, partial curve, poor fit].

For Cc1ccccc1-c1nc(N(C)Cc2ccco2)c2ccccc2n1, the AC50 [2] was 11.2 µM [falling, partial curve].

For Cc1ccc(NC(=O)CSc2nc3ccccc3n2CC(=O)N2CCC(C)CC2)cc1C, the AC50 [1] was 0.158 µM [rising, full curve, poor fit].

For CCCSc1nc(N2CCOCC2)c2c(c1C#N)CC(C)(C)SC2, the AC50 [2] was 17.8 µM [rising, partial curve, poor fit].

For COc1ccc(CCNC(=O)Cn2nnc(-c3ccc(Cl)cc3)n2)cc1OC, the AC50 [2] was 0.398 µM [falling, full curve, poor fit] and the AC50 [1] was 2.82 µM [falling, partial curve, poor fit].

In the case of Cc1ccc(SCCC(=O)N2CCCC2)cc1, the AC50 [2] is reported as 35.5 µM [rising, single point].

For Cc1cccc(C)c1NC(=O)N1C2CCCC1CC(NC(=O)C(C)(C)C)C2 (stereo not given), the AC50 [1] was 25.1 µM [rising, single point].

In the case of CCN1CCc2nc(N)oc2CC1, the AC50 [2] is reported as 0.141 µM [rising, full curve, poor fit] and the AC50 [1] is reported as 0.2 µM [rising, full curve, poor fit].

In the case of COc1ccc(Cn2nnnc2C(c2ccccn2)N2CCN(c3cc(Cl)ccc3C)CC2)cc1 (stereo not given), the AC50 [2] is reported as 14.1 µM [rising, partial curve, poor fit] and the AC50 [1] is reported as 22.4 µM [rising, partial curve].

With CCn1c(SCC(=O)Nc2ccc3c(c2)OCCO3)nnc1-c1ccccn1 the AC50 [1] was 5.62 µM [falling, single point].

For O=C(Nc1ccc2c(c1)OCCO2)Nc1ccc2c(c1)OCO2, the AC50 [2] was 0.0891 µM [falling, full curve, poor fit].

In the case of CCSc1ccccc1C(=O)Nc1nc2ccccc2c(=O)[nH]1, the AC50 [2] is reported as 35.5 µM [falling, partial curve, poor fit] and the AC50 [1] is reported as 35.5 µM [falling, partial curve, poor fit].

In the case of CCOc1ccccc1N1CCN(C(=S)NC(=O)C23CC4CC(CC(C4)C2)C3)CC1, the AC50 [2] is reported as 14.1 µM [rising, partial curve] and the AC50 [1] is reported as 12.6 µM [rising, partial curve].

In the case of COc1cccc(C(=O)/C=C/c2ccc(SC)cc2)c1, the AC50 [2] is reported as 22.4 µM [falling, single point] and the AC50 [1] is reported as 31.6 µM [falling, single point].

In the case of CC(C)Oc1ccc(CN2CCc3nc(Nc4ccc5c(c4)OCCO5)ncc3C2)cc1, the AC50 [2] is reported as 35.5 µM [falling, single point] and the AC50 [1] is reported as 17.8 µM [falling, partial curve, poor fit].

In the case of CNc1nccc(-c2ccc(Cl)cc2)c1C#N, the AC50 [2] is reported as 3.98 µM [rising, full curve, poor fit].

In the case of Cc1nc2nc(Cc3ccccc3)[nH]n2c(=O)c1Cl, the AC50 [2] is reported as 22.4 µM [falling, single point] and the AC50 [1] is reported as 35.5 µM [falling, single point].

For Cc1ccc(C)n1-c1ccc(-c2nnc3n2CCCCC3)s1, the AC50 [2] was 14.1 µM [falling, partial curve, poor fit] and the AC50 [1] was 11.2 µM [falling, partial curve].

For COc1ccc(Nc2ncnc3c2cnn3Cc2ccccc2)cc1OC, the AC50 [1] was 17.8 µM [rising, partial curve].

For Cc1cccc2sc(NC(=O)C3CCN(S(=O)(=O)c4cc([N+](=O)[O-])ccc4Cl)CC3)nc12, the AC50 [2] was 8.91 µM [rising, partial curve, poor fit] and the AC50 [1] was 10 µM [rising, partial curve].

In the case of Cc1ccc(/C=N/n2c(C)nc3ccccc3c2=O)s1, the AC50 [2] is reported as 0.1 µM [falling, full curve, poor fit].

In the case of O=C(Nc1ccncc1)Nc1ccc(F)c(Cl)c1, the AC50 [2] is reported as 35.5 µM [falling, single point] and the AC50 [1] is reported as 35.5 µM [falling, single point].

With Fc1ccc(-c2noc3ncnc(Nc4ccc(F)cc4F)c23)cc1 the AC50 [2] was 0.316 µM [falling, full curve, poor fit].

With COc1ccc(S(=O)(=O)c2c(Nc3c(C)cccc3C)sc(C(=O)c3ccc(F)cc3)c2N)cc1 the AC50 [2] was 1.12 µM [falling, full curve].

In the case of O=C(N/N=C/c1ccsc1)c1cc(-c2ccncc2)nc2ccccc12, the AC50 [2] is reported as 0.447 µM [rising, full curve] and the AC50 [1] is reported as 4.47 µM [rising, full curve].

For COc1nc(Nc2ccc3c(c2)OCO3)nc(OC)n1, the AC50 [1] was 3.98 µM [rising, single point].

With Cc1ccc(C(=O)N2CCc3cc(CNC(=O)CSc4ccccc4)ccc32)cc1 the AC50 [2] was 0.316 µM [rising, partial curve, poor fit] and the AC50 [1] was 0.0141 µM [rising, full curve, poor fit].

With O=C(CSc1nnc(Cn2c(=O)sc3ccccc32)n1-c1ccccc1)N1CCOCC1 the AC50 [1] was 0.01 µM [falling, full curve].

For CC(C)n1c(NCc2nc3ccccc3n2C)nc2ccccc21, the AC50 [1] was 17.8 µM [rising, single point].

For O=C(C1CCN(S(=O)(=O)c2ccc3c(c2)OCCO3)CC1)N1CCc2ccccc21, the AC50 [2] was 11.2 µM [rising, partial curve, poor fit] and the AC50 [1] was 17.8 µM [rising, single point].

In the case of CC(=O)N1CCc2cc(S(=O)(=O)Nc3cccc(C(F)(F)F)c3)ccc21, the AC50 [1] is reported as 12.6 µM [rising, partial curve].

For Cc1ccc(C)c(C(=O)CSc2n[nH]c(-c3ccncc3)n2)c1, the AC50 [2] was 11.2 µM [rising, partial curve, poor fit] and the AC50 [1] was 14.1 µM [rising, partial curve].

For O=[N+]([O-])c1ccc(O)c(C=Nc2ccc3nc(-c4ccccc4)[nH]c3c2)c1, the AC50 [1] was 35.5 µM [rising, single point].

In the case of CC(C)=Cc1oc2ccc([N+](=O)[O-])cc2c1N1CC(C)OC(C)C1 (stereo not given), the AC50 [2] is reported as 0.00447 µM [falling, full curve, poor fit].

In the case of CN(NS(=O)(=O)c1ccc(Br)cc1)c1nc(C(F)(F)F)nc2ccccc12, the AC50 [1] is reported as 35.5 µM [rising, single point].

In the case of COc1ccc(CNC(=O)C(=O)Nc2c3c(nn2-c2ccccc2)CSC3)cc1, the AC50 [2] is reported as 0.0224 µM [falling, full curve].

With CCN(CC)C(=O)c1c(-c2ccccc2)oc2ccc(OC)cc12 the AC50 [2] was 12.6 µM [rising, partial curve] and the AC50 [1] was 20 µM [rising, single point].

In the case of O=C(Nc1ccccc1)Nc1cccc(Cl)c1, the AC50 [1] is reported as 12.6 µM [rising, single point].

For Nn1c(SCC(=O)NCc2ccccc2)nnc1C1CC1, the AC50 [2] was 12.6 µM [rising, single point].

With Cc1cccc(S(=O)(=O)Nc2ccc(-c3cn4ccccc4n3)cc2)c1 the AC50 [1] was 11.2 µM [rising, partial curve].

For O=C(c1cnn2c1NC(c1ccc(Br)cc1)CC2C(F)(F)F)N1CCN(C23CC4CC(CC(C4)C2)C3)CC1 (stereo not given), the AC50 [1] was 25.1 µM [rising, single point].

With CCCCCCSc1nnc(-c2cnn(-c3ccccc3)c2-n2cccc2)n1C the AC50 [1] was 35.5 µM [rising, single point].

For CCOC(=O)CSc1nc2ccsc2c(=O)n1C1CCN(C(=O)OCC)CC1, the AC50 [1] was 12.6 µM [rising, partial curve].

With O=C(NCCc1csc(-c2ccc(C(F)(F)F)cc2)n1)c1ccc(F)c(F)c1 the AC50 [1] was 15.8 µM [rising, single point].

In the case of Cc1ccc(N2C(=O)c3n[nH]c(C)c3C2c2cccnc2)cc1 (stereo not given), the AC50 [1] is reported as 2 µM [rising, full curve, poor fit].

With COc1cccc2cc(C(C)N(CCCN3CCOCC3)C(=O)Nc3ccc(Cl)cc3)oc12 (stereo not given) the AC50 [1] was 12.6 µM [rising, single point].

In the case of Cc1nc(Nc2ccncc2)c2oc3ccccc3c2n1, the AC50 [1] is reported as 12.6 µM [rising, partial curve].

With COc1ccc(-c2ocnc2C(=O)N2CCN(Cc3cccnc3)CC2)cc1 the AC50 [1] was 0.141 µM [falling, full curve, poor fit].

In the case of COc1ccc(C(CCN(Cc2ccc(OC)c(OC)c2)C(=O)CCl)c2ccccc2)cc1 (stereo not given), the AC50 [2] is reported as 35.5 µM [falling, single point] and the AC50 [1] is reported as 35.5 µM [falling, single point].
